Measured values: paper PMC11965454, “Simultaneous determination of lesinurad and co-administered drugs used in management of gout comorbidities to uncover potential pharmacokinetic interaction in rat plasma” (Scientific Reports, 2025)

What was measured:
[1] = Stock solution stability (methanol), HPLC-DAD; format: physicochemical; conditions: stock solution in methanol, n = 3
[2] = Stability of the studied drugs in rat plasma (freeze-thaw, bench-top, long-term), HPLC-DAD; format: in vitro ADME; conditions: n = 3
Description: Stability studies were conducted by preparing low, medium and high plasma QC samples in triplicates under different conditions and comparing them with freshly prepared quality control samples. Namely, three freeze-thaw cycles (freeze at -20 °C then thaw at room temperature for three cycles), bench-top stability testing for 6 h at room temperature and long-term stability testing for 35 days at -20 °C. Moreover, investigation of the stability of LES, ETC, EPL, AMD and DIC stock solutions was performed by keeping the stock solutions for 30 days at 4 °C or for 6 h at room temperature.

recovery at 6 h, 1000 ng/ml ([1]; 1000 ng/ml, 6 h at room temperature, read-out: Stock solution stability (room temp.) Recovery%): 100%
recovery at 30 days, 1000 ng/ml ([1]; 1000 ng/ml, 30 days at 4 °C): 102%
recovery at 6 h, 10000 ng/ml ([1]; 10,000 ng/ml, 6 h at room temperature, read-out: Stock solution stability (room temp.) Recovery%): 101%
recovery at 30 days, 10000 ng/ml ([1]; 10,000 ng/ml, 30 days at 4 °C): 99.6%
recovery at 6 h, 25000 ng/ml ([1]; 25,000 ng/ml, 6 h at room temperature, read-out: Stock solution stability (room temp.) Recovery%): 102%
recovery at 30 days, 25000 ng/ml ([1]; 25,000 ng/ml, 30 days at 4 °C): 102%
recovery at 6 h, 1000 ng/ml ([2]; rat plasma, 1000 ng/ml, 6 h at room temperature): 93.7%
recovery at 35 days, 1000 ng/ml ([2]; rat plasma, 1000 ng/ml, 35 days at -20 °C): 91.3%
recovery at 1000 ng/ml ([2]; rat plasma, 1000 ng/ml, three cycles -20 °C / room temperature): 91.3%
recovery at 6 h, 10000 ng/ml ([2]; rat plasma, 10,000 ng/ml, 6 h at room temperature): 96.3%
recovery at 35 days, 10000 ng/ml ([2]; rat plasma, 10,000 ng/ml, 35 days at -20 °C): 95.7%
recovery at 10000 ng/ml ([2]; rat plasma, 10,000 ng/ml, three cycles -20 °C / room temperature): 92.4%
recovery at 6 h, 25000 ng/ml ([2]; rat plasma, 25,000 ng/ml, 6 h at room temperature): 94.8%
recovery at 35 days, 25000 ng/ml ([2]; rat plasma, 25,000 ng/ml, 35 days at -20 °C): 92.5%
recovery at 25000 ng/ml ([2]; rat plasma, 25,000 ng/ml, three cycles -20 °C / room temperature): 95.2%
SMILES: CCCCc1oc2ccccc2c1C(=O)c1cc(I)c(OCCN(CC)CC)c(I)c1 [AMD, amiodarone]
